These are yes or no findings as the source states them, for the method shown. In cells and extracts the contact can be indirect. A yes stands for co-enrichment or nearness to the bait. Other partners may have been found.
B1: FAR1 (enzyme, UniProt Q8WVX9 1-515)
chain: MVSIPEYYEGKNVLLTGATGFLGKVLLEKLLRSCPKVNSVYVLVRQKAGQTPQERVEEVLSGKLFDRLRDENPDFREKIIAINSELTQPKLALSEEDKEVIIDSTNIIFHCAATVRFNENLRDAVQLNVIATRQLILLAQQMKNLEVFMHVSTAYAYCNRKHIDEVVYPPPVDPKKLIDSLEWMDDGLVNDITPKLIGDRPNTYIYTKALAEYVVQQEGAKLNVAIVRPSIVGASWKEPFPGWIDNFNGPSGLFIAAGKGILRTIRASNNALADLVPVDVVVNMSLAAAWYSGVNRPRNIMVYNCTTGSTNPFHWGEVEYHVISTFKRNPLEQAFRRPNVNLTSNHLLYHYWIAVSHKAPAFLYDIYLRMTGRSPRMMKTITRLHKAMVFLEYFTSNSWVWNTENVNMLMNQLNPEDKKTFNIDVRQLHWAEYIENYCLGTKKYVLNEEMSGLPAARKHLNKLRNIRYGFNTILVILIWRIFIARSQMARNIWYFVVSLCYKFLSYFRASSTMRY
B2: ABCD3/PMP70 (protein, UniProt P28288 1-659)
chain: MAAFSKYLTARNSSLAGAAFLLLCLLHKRRRALGLHGKKSGKPPLQNNEKEGKKERAVVDKVFFSRLIQILKIMVPRTFCKETGYLVLIAVMLVSRTYCDVWMIQNGTLIESGIIGRSRKDFKRYLLNFIAAMPLISLVNNFLKYGLNELKLCFRVRLTKYLYEEYLQAFTYYKMGNLDNRIANPDQLLTQDVEKFCNSVVDLYSNLSKPFLDIVLYIFKLTSAIGAQGPASMMAYLVVSGLFLTRLRRPIGKMTITEQKYEGEYRYVNSRLITNSEEIAFYNGNKREKQTVHSVFRKLVEHLHNFILFRFSMGFIDSIIAKYLATVVGYLVVSRPFLDLSHPRHLKSTHSELLEDYYQSGRMLLRMSQALGRIVLAGREMTRLAGFTARITELMQVLKDLNHGKYERTMVSQQEKGIEGVQVIPLIPGAGEIIIADNIIKFDHVPLATPNGDVLIRDLNFEVRSGANVLICGPNGCGKSSLFRVLGELWPLFGGRLTKPERGKLFYVPQRPYMTLGTLRDQVIYPDGREDQKRKGISDLVLKEYLDNVQLGHILEREGGWDSVQDWMDVLSGGEKQRMAMARLFYHKPQFAILDECTSAVSVDVEGYIYSHCRKVGITLFTVSHRKSLWKHHEYYLHMDGRGNYEFKQITEDTVEFGS
B3: ACOT8 (enzyme, UniProt O14734 1-319)
chain: MSSPQAPEDGQGCGDRGDPPGDLRSVLVTTVLNLEPLDEDLFRGRHYWVPAKRLFGGQIVGQALVAAAKSVSEDVHVHSLHCYFVRAGDPKLPVLYQVERTRTGSSFSVRSVKAVQHGKPIFICQASFQQAQPSPMQHQFSMPTVPPPEELLDCETLIDQYLRDPNLQKRYPLALNRIAAQEVPIEIKPVNPSPLSQLQRMEPKQMFWVRARGYIGEGDMKMHCCVAAYISDYAFLGTALLPHQWQHKVHFMVSLDHSMWFHAPFRADHWMLYECESPWAGGSRGLVHGRLWRQDGVLAVTCAQEGVIRVKPQVSESKL

By UniProt entry, the sequences of proteins in these tests, tags left out.
UniProt Q9UKA4: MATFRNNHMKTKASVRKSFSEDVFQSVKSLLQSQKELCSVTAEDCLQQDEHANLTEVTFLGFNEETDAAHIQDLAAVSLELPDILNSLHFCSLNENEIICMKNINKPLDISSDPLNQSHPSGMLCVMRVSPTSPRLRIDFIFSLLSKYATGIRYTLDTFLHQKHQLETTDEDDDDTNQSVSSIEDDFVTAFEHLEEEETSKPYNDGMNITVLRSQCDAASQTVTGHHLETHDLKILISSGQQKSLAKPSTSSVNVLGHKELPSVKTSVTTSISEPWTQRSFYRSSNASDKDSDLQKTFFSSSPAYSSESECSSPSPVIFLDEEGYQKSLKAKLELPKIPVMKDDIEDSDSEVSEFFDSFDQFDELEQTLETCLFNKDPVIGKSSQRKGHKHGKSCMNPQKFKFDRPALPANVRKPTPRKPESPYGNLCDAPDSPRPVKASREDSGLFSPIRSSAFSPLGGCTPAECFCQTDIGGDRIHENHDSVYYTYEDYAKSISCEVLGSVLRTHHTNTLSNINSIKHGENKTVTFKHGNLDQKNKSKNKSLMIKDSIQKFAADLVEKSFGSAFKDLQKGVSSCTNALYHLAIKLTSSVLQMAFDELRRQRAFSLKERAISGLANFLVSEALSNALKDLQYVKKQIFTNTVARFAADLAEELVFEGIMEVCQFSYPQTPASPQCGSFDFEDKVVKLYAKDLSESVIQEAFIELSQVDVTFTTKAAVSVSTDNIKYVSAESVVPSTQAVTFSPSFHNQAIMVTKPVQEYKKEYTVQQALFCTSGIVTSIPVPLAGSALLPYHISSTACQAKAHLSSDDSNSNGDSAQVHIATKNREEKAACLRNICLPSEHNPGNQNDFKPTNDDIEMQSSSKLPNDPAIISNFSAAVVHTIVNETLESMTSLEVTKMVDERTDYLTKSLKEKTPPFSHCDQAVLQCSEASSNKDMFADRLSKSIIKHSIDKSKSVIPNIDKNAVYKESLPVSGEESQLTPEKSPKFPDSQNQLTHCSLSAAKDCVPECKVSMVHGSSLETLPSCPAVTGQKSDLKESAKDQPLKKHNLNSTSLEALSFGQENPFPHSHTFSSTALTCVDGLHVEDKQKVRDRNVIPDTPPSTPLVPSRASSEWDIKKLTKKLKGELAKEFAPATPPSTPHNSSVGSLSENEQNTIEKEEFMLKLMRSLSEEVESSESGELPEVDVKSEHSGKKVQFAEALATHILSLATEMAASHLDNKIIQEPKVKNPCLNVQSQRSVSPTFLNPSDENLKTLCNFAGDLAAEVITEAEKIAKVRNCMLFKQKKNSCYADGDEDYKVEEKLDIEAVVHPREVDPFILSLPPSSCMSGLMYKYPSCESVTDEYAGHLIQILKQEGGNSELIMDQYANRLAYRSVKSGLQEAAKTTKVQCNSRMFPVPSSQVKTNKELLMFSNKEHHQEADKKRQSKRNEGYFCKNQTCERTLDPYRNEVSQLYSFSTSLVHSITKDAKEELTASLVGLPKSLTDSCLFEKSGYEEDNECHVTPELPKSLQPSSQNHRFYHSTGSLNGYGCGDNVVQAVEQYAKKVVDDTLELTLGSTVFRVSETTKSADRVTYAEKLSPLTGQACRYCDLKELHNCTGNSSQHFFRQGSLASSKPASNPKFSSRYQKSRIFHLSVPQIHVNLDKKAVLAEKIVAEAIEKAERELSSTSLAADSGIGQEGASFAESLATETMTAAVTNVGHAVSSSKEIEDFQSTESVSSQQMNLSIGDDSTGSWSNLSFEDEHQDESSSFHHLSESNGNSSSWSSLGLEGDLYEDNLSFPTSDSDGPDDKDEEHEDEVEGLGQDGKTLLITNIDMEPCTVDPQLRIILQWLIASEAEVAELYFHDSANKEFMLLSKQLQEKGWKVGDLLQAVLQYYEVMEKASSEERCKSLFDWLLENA
UniProt Q7Z6Z7: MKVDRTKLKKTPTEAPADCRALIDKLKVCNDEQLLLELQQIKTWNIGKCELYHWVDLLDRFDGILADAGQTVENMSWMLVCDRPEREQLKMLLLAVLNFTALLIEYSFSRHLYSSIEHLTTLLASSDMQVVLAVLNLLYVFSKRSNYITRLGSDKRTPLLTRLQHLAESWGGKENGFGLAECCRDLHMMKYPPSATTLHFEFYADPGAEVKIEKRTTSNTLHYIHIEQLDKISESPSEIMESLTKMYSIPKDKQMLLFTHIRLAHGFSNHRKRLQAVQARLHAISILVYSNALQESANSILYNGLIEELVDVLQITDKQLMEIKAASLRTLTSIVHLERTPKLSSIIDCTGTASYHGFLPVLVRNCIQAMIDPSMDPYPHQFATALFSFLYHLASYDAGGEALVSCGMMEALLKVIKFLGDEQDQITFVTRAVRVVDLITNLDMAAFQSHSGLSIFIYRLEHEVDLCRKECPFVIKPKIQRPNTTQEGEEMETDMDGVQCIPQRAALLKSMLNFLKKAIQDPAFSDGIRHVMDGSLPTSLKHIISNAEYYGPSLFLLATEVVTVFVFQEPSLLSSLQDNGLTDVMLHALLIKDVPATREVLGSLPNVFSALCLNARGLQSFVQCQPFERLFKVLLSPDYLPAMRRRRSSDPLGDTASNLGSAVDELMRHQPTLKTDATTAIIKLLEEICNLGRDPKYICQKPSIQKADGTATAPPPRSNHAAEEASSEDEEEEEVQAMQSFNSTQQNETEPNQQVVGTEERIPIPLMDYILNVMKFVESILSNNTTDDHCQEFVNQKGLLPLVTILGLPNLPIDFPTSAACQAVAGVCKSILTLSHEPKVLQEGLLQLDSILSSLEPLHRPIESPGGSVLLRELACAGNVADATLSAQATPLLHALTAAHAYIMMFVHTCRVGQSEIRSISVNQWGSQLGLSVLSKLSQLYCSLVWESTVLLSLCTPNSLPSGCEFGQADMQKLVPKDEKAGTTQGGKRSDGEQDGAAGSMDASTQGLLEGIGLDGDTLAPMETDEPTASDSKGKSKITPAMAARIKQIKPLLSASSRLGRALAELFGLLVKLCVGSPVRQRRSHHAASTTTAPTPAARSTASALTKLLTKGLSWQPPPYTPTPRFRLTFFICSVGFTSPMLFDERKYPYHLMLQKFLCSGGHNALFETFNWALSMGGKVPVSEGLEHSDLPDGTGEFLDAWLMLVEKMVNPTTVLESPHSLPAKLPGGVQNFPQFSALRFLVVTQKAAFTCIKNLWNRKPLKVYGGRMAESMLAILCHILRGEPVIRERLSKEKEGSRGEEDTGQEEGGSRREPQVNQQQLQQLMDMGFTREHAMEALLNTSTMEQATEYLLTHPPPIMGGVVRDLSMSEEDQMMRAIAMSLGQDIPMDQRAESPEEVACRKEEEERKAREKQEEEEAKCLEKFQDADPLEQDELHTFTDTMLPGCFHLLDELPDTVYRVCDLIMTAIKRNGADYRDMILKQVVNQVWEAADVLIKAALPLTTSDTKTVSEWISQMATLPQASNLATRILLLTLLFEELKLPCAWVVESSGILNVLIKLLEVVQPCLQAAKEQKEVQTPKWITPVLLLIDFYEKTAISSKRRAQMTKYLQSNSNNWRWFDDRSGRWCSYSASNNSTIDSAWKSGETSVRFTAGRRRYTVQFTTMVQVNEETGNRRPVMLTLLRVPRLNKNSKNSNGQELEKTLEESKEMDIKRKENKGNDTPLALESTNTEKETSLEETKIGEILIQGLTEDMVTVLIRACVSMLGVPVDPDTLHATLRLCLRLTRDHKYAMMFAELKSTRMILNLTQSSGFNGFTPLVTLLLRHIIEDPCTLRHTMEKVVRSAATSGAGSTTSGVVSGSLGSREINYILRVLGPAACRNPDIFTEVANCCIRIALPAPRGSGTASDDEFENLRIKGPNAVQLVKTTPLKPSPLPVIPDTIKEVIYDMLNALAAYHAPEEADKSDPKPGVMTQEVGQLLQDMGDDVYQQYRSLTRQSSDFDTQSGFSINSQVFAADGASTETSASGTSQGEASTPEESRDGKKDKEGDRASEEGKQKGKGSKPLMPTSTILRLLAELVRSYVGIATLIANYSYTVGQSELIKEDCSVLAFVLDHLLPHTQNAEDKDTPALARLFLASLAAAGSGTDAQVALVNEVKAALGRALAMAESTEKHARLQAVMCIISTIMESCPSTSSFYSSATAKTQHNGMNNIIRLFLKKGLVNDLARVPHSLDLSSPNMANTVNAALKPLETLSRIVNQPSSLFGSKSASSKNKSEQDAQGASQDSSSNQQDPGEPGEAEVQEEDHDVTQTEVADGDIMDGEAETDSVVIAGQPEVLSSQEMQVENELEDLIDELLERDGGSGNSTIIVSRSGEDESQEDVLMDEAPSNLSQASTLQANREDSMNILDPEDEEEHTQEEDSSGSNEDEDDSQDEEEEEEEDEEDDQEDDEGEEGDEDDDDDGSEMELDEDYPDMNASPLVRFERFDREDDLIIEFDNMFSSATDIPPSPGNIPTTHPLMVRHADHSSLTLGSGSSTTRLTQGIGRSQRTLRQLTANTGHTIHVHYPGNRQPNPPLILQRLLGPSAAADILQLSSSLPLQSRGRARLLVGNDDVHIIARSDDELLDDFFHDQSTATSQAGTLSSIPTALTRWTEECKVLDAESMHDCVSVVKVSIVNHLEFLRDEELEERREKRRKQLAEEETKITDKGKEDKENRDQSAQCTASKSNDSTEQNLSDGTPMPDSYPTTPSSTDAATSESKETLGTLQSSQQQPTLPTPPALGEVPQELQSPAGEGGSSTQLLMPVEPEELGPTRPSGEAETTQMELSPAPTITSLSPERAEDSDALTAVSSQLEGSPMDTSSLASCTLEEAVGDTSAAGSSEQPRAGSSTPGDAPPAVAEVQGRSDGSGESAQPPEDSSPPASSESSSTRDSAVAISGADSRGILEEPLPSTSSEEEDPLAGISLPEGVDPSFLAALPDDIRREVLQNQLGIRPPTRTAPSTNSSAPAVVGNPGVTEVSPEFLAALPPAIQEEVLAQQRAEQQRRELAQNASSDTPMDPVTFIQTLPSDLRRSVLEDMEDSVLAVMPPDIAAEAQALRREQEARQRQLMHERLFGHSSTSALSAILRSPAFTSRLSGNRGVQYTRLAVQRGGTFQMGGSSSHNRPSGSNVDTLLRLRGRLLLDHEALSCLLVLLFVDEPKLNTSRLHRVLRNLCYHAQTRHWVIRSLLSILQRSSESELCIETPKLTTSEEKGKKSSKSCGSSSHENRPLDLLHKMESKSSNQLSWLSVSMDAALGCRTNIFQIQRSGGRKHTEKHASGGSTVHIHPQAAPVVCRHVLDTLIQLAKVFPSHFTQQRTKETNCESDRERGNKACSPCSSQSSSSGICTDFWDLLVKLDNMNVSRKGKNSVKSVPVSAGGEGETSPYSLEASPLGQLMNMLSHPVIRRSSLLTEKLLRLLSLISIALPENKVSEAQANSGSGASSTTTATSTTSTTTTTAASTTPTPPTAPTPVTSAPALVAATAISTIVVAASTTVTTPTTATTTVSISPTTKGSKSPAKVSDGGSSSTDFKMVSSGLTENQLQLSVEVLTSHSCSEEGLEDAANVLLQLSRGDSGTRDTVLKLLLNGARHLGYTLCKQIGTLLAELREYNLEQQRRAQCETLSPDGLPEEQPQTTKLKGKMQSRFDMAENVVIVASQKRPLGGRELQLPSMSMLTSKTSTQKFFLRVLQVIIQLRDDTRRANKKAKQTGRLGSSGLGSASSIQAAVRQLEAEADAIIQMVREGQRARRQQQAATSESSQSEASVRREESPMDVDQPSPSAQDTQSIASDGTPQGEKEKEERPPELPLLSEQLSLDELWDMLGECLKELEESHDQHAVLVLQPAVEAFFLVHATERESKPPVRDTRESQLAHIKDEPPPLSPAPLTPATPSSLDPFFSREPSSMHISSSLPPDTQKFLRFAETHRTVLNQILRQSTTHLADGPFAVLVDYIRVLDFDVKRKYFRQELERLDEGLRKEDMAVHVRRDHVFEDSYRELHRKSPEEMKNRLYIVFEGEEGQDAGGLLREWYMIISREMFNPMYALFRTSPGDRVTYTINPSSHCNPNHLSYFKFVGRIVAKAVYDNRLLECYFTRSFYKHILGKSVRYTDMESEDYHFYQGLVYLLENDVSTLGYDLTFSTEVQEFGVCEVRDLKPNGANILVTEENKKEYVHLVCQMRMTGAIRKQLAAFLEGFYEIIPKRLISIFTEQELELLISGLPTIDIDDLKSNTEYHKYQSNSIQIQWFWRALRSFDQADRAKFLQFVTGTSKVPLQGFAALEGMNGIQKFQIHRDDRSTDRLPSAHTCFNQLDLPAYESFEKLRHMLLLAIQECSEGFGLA
UniProt O95292: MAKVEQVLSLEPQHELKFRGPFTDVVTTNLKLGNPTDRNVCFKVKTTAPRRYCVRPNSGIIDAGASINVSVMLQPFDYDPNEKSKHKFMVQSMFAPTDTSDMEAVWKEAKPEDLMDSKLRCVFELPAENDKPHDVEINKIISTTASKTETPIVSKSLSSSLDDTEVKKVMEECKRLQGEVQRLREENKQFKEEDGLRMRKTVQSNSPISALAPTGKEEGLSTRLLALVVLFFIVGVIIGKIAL

Target: human AKAP11-EGFP (human) (UniProt Q9UKA4)
Assay: affinity purification with mass spectrometry

binding, binds:
E3 ligase HUWE1 (from UniProt Q7Z6Z7 1-4374) (enzyme)
PKA R2-α (PRKAR2A) (from UniProt P13861 1-404)
IQGAP1 (from UniProt P46940 1-1657)
IQGAP3 (from UniProt Q86VI3 1-1631)
vesicle-associated membrane protein-associated protein VAP-B (from UniProt O95292 1-243)
PKA R1-α (PRKAR1A) (from UniProt P10644 1-381)
B1
B2
B3

— doi:10.1101/2025.04.25.650548
